Measurements reported in paper doi:10.1101/2023.11.21.567992.
Results are given in words; binding and its absence hold for the method and conditions named. In cells and extracts the contact can be indirect. Some binding calls cover weakened binding; strength is not graded here. Where a sequence is shown, tags or fusion partners need not be part of it.

Tests used:
[1] = biological target: T1, KIF2C (human (endogenous in U2OS)) (UniProt Q99661); assay: co-IP
T1 sequence: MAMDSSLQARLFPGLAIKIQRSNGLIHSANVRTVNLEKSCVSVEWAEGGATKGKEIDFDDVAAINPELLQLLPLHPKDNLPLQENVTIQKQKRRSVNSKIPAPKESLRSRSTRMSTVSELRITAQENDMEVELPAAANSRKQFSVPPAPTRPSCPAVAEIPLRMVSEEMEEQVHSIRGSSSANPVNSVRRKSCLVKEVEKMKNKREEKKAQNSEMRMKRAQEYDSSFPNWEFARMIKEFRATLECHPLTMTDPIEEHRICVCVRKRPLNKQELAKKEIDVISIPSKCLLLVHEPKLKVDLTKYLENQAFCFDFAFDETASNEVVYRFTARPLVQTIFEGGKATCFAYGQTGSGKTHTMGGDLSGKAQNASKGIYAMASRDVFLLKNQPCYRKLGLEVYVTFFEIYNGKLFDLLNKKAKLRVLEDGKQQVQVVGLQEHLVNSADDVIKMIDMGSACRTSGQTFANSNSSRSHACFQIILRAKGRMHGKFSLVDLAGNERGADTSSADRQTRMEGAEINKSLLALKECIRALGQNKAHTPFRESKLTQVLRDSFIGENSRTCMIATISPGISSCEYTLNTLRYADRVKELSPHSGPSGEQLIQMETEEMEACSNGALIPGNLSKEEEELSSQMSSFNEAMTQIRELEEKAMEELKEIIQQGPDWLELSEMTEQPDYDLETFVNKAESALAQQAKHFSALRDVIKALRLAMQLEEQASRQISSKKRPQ

FLAG-tagged Nek2A = biological target: T2, FLAG-tagged Nek2A (UniProt P51955); assay: co-IP
T2 sequence: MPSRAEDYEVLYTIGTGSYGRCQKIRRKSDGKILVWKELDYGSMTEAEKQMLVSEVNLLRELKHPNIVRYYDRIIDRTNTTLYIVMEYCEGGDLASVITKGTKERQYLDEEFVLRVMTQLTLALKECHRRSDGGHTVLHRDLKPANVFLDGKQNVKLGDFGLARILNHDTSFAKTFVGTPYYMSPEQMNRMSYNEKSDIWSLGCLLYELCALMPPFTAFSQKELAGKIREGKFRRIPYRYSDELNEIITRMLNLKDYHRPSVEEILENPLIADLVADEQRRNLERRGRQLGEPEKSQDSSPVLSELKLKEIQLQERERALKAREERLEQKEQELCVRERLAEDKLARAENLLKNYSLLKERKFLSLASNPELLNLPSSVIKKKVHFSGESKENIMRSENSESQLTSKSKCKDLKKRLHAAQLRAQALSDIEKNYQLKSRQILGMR

Binder | binding [1] | binding (FLAG-tagged Nek2A)
FLAG-tagged Nek2A (enzyme, UniProt P51955 1-445) MPSRAEDYEVLYTIGTGSYGRCQKIRRKSDGKILVWKELDYGSMTEAEKQMLVSEVNLLRELKHPNIVRYYDRIIDRTNTTLYIVMEYCEGGDLASVITKGTKERQYLDEEFVLRVMTQLTLALKECHRRSDGGHTVLHRDLKPANVFLDGKQNVKLGDFGLARILNHDTSFAKTFVGTPYYMSPEQMNRMSYNEKSDIWSLGCLLYELCALMPPFTAFSQKELAGKIREGKFRRIPYRYSDELNEIITRMLNLKDYHRPSVEEILENPLIADLVADEQRRNLERRGRQLGEPEKSQDSSPVLSELKLKEIQLQERERALKAREERLEQKEQELCVRERLAEDKLARAENLLKNYSLLKERKFLSLASNPELLNLPSSVIKKKVHFSGESKENIMRSENSESQLTSKSKCKDLKKRLHAAQLRAQALSDIEKNYQLKSRQILGMR | binds | –
KIF2C (protein, UniProt Q99661 1-725) MAMDSSLQARLFPGLAIKIQRSNGLIHSANVRTVNLEKSCVSVEWAEGGATKGKEIDFDDVAAINPELLQLLPLHPKDNLPLQENVTIQKQKRRSVNSKIPAPKESLRSRSTRMSTVSELRITAQENDMEVELPAAANSRKQFSVPPAPTRPSCPAVAEIPLRMVSEEMEEQVHSIRGSSSANPVNSVRRKSCLVKEVEKMKNKREEKKAQNSEMRMKRAQEYDSSFPNWEFARMIKEFRATLECHPLTMTDPIEEHRICVCVRKRPLNKQELAKKEIDVISIPSKCLLLVHEPKLKVDLTKYLENQAFCFDFAFDETASNEVVYRFTARPLVQTIFEGGKATCFAYGQTGSGKTHTMGGDLSGKAQNASKGIYAMASRDVFLLKNQPCYRKLGLEVYVTFFEIYNGKLFDLLNKKAKLRVLEDGKQQVQVVGLQEHLVNSADDVIKMIDMGSACRTSGQTFANSNSSRSHACFQIILRAKGRMHGKFSLVDLAGNERGADTSSADRQTRMEGAEINKSLLALKECIRALGQNKAHTPFRESKLTQVLRDSFIGENSRTCMIATISPGISSCEYTLNTLRYADRVKELSPHSGPSGEQLIQMETEEMEACSNGALIPGNLSKEEEELSSQMSSFNEAMTQIRELEEKAMEELKEIIQQGPDWLELSEMTEQPDYDLETFVNKAESALAQQAKHFSALRDVIKALRLAMQLEEQASRQISSKKRPQ | – | binds
